Data from PubChem BioAssay AID504847 (National Center for Advancing Translational Sciences (NCATS), 2011).
Among all 400,000 compounds or so, about 3,700 (0.93%) were called active. The inconclusive results got no clear call from the source; some entries with a clear call stand among them for comparison. Calls come from the whole dose curve; as a rule, active = well fitted inhibition curve with a large enough effect; inconclusive = small, poorly fitted or top-dose-only effect, or another doubt; inactive = no such curve, though single readings can be large or run the other way. Potencies beside an inconclusive call are fits to weak or partial responses and may not hold up.

Amino acid sequences for entries named in this document (tags omitted). A change or cut given only in a name is not applied to a line headed by its entry.
UniProt P11473: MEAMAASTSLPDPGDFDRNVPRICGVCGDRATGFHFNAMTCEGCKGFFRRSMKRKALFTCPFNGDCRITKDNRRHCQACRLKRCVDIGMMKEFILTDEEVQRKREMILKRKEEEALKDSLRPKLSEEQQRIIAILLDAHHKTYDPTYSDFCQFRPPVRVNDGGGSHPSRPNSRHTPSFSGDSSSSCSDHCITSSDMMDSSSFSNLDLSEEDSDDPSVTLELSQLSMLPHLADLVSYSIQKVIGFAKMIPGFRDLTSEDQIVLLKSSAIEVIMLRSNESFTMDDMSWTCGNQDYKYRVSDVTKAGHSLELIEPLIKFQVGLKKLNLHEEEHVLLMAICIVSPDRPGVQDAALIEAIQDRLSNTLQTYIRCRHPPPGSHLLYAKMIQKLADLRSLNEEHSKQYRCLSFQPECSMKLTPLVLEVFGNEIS

Each compound was assayed against Vitamin D3 receptor (Homo sapiens) (UniProt P11473) (assay: Inhibitors of the vitamin D receptor (VDR): qHTS). Conditions: VDR-SRC2-3 peptide fluorescence polarization, 2 h; max response, negative = inhibition: active compounds read low.
Method in brief: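 The screen uses fluorescence polarization to detect compounds that interfere with recruitment of the SRC2-3 coactivator peptide to VDR; plates are read after 2 h at room temperature.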
% is set by controls: 0 for no effect and ±100 for the full control effect; potency is the fitted concentration of half-maximal effect.

**Q.** For `CCN(CC)S(=O)(=O)c1cc(NC(=O)c2ccc(-n3cncn3)c([N+](=O)[O-])c2)ccc1C`, which max response, negative = inhibition is on record?
**A.** inactive: 8.07%

**Q.** With `O=C(CSc1ccc(-c2ccco2)nn1)Nc1ccccc1F` as the compound, how does the Potency read?
**A.** inconclusive: 89.1 µM [inhibitor, single point]

**Q.** How did the Potency turn out when `CC1=C/C(=C/N(C)c2ccccc2)C(=O)S1` was run?
**A.** inconclusive: 79.4 µM [inhibitor, single point]

**Q.** With `COc1ccc2c(c1OC)C(Cc1ccccc1)N1CCc3cc4c(cc3C1C2)OCO4` (stereo unspecified) as the compound, how does the Potency read?
**A.** inconclusive: 35.5 µM [inhibitor, single point]

**Q.** Which max response, negative = inhibition does the source give for `COc1ccc(NC(=O)CN2CCN(c3ccc(F)cc3)CC2)cc1` here?
**A.** inactive: -51.7%

**Q.** How did the Potency turn out when `Cc1ccn2cc(CCNC(=O)COc3ccccc3)nc2c1` was run?
**A.** inconclusive: 35.5 µM [inhibitor, single point]

**Q.** Which Potency does the source give for `Cc1ccc(N=C2S/C(=C\c3cn(CC(=O)O)c4ccccc34)C(=O)N2C)cc1` here?
**A.** inconclusive: 100 µM [inhibitor, single point]

**Q.** Which Potency does the source give for `CCN(Cc1ccc(OC)c(COC)c1)CC1CCCN(CCc2cccc(OC)c2)C1` (stereo unspecified) here?
**A.** inconclusive: 100 µM [inhibitor, partial curve, poor fit]

**Q.** With `Cc1cc([N+](=O)[O-])nn1Cc1ccc(C(=O)N/N=C/c2ccccc2)cc1` as the compound, how does the Potency read?
**A.** inconclusive: 20 µM [inhibitor, partial curve, poor fit]

**Q.** With `BrC(=C\c1ccccc1)/C=N/N1CCN(c2ccccn2)CC1` as the compound, how does the Potency read?
**A.** inconclusive: 89.1 µM [inhibitor, single point]

**Q.** With `CC(=O)N(CCC(Cc1ccccc1)c1ccco1)Cc1ccco1` (stereo unspecified) as the compound, how does the Potency read?
**A.** inconclusive: 89.1 µM [inhibitor, single point]

**Q.** Which Potency does the source give for `S=c1[nH]nc2ccccn12` here?
**A.** inconclusive: 100 µM [inhibitor, partial curve, poor fit]

**Q.** Which Potency does the source give for `CCCCN1C(=O)C(=O)c2cc(Cl)ccc21` here?
**A.** inconclusive: 50.1 µM [inhibitor, partial curve, poor fit]

**Q.** How did the Potency turn out when `CCOc1ccccc1OCC(=O)Nc1cc(S(=O)(=O)N2CCCCC2)ccc1OC` was run?
**A.** inconclusive: 89.1 µM [inhibitor, partial curve, poor fit]

**Q.** `O=P1(O)Oc2c(c(-c3ccccc3)cc3ccc4ccccc4c23)-c2c(-c3ccccc3)cc3ccc4ccccc4c3c2O1` was tested. Which Potency did it give?
**A.** inconclusive: 79.4 µM [inhibitor, partial curve]

**Q.** For `COc1cc(Cl)ccc1NC(=S)N(CCN(C)C)C(C)c1ccncc1` (stereo unspecified), which Potency is on record?
**A.** inconclusive: 89.1 µM [inhibitor, single point]

**Q.** For `CCN(CC)S(=O)(=O)c1ccc(-c2csc(C)n2)cc1`, which Potency is on record?
**A.** active: 22.4 µM

**Q.** With `CCC(CC)c1nnc(NC(=O)CS(=O)(=O)c2ccc(C)cc2)s1` as the compound, how does the Potency read?
**A.** active: 44.7 µM

**Q.** How did the max response, negative = inhibition turn out when `COc1cccc(CNC(=O)Cn2c(C)c3cnn(-c4ccccc4)c(=O)c3c2C)c1` was run?
**A.** inactive: 4.33%

**Q.** With `COCC(O)CNc1ccccc1` (stereo unspecified) as the compound, how does the Potency read?
**A.** inconclusive: 22.4 µM [inhibitor, partial curve, poor fit]

**Q.** How did the Potency turn out when `COc1cc2c(cc1OC)C(COc1ccc3c(C)cc(=O)oc3c1)N(C(=O)CC(C)C)CC2` (stereo unspecified) was run?
**A.** inconclusive: 89.1 µM [inhibitor, partial curve, poor fit]

**Q.** For `CCOC(=O)c1noc2nc(C)n(Cc3ccc([N+](=O)[O-])cc3)c(=O)c12`, which max response, negative = inhibition is on record?
**A.** inactive: -3.91%

**Q.** Which max response, negative = inhibition does the source give for `O=C(NCc1cccc(Cl)c1)C1CCCN(c2ncnc3onc(-c4ccc(F)cc4)c23)C1` (stereo unspecified) here?
**A.** inactive: 8.08%

**Q.** Which Potency does the source give for `CCOCCCN(C(=O)c1snc(C(N)=O)c1N)C(C(=O)NC(C)(C)C)c1ccc(Cl)cc1` (stereo unspecified) here?
**A.** inconclusive: 100 µM [inhibitor, single point]

**Q.** Which Potency does the source give for `CCOC(=O)C(/C(C)=N/NC(=O)C1CC1c1ccccc1)C(C)C` (stereo unspecified) here?
**A.** inconclusive: 89.1 µM [inhibitor, single point]

**Q.** How did the max response, negative = inhibition turn out when `COc1ccc(OC)c(CN2CCN(C(=O)c3ccc(F)cc3)CC2)c1` was run?
**A.** inactive: -5.26%

**Q.** Which max response, negative = inhibition does the source give for `CCc1ccccc1NC(=O)CCCN1C(=O)C2CC=CCC2C1=O` (stereo unspecified) here?
**A.** inactive: 6.3%

**Q.** For `COC(=O)C1=C(N)Oc2cc(C)[nH]c(=O)c2C1c1ccc(Cl)cc1` (stereo unspecified), which Potency is on record?
**A.** inconclusive: 15.8 µM [inhibitor, single point]

**Q.** Which Potency does the source give for `COc1ccc(Nc2c3c(c(C#N)c4nc5ccccc5n24)CCC3)cc1` here?
**A.** inconclusive: 17.8 µM [inhibitor, partial curve, poor fit]

**Q.** With `Cc1ccc(C)c(Nc2nn3c(=O)c4ccc(C(=O)NCc5cccs5)cc4nc3s2)c1` as the compound, how does the max response, negative = inhibition read?
**A.** inactive: 7.88%

**Q.** How did the Potency turn out when `CCOC(=O)C1C(=O)N(C(=O)c2cncc(Br)c2)CC1c1ccccc1` (stereo unspecified) was run?
**A.** inconclusive: 5.01 µM [inhibitor, single point]

**Q.** `Cc1cccn2cc(-c3ccc(Cl)cc3)nc12` was tested. Which max response, negative = inhibition did it give?
**A.** inactive: 4.81%

**Q.** Which Potency does the source give for `COc1cc(/C=C(\C#N)C(=O)NCc2ccccc2)ccc1OCc1ccc(C(=O)O)cc1` here?
**A.** inconclusive: 31.6 µM [inhibitor, partial curve, poor fit]

**Q.** With `Cn1cccc1/C=C1\SC(=Nc2ccc(O)cc2)NC1=O` as the compound, how does the max response, negative = inhibition read?
**A.** inactive: 3.6%

**Q.** For `CCOc1ccc(-c2nc(C#N)c(N3CCOCC3)o2)cc1`, which max response, negative = inhibition is on record?
**A.** inactive: -7.78%

**Q.** For `CC(=O)CCc1ccc(OCCCCn2cncn2)cc1`, which Potency is on record?
**A.** inconclusive: 10 µM [inhibitor, partial curve, poor fit]

**Q.** With `COc1ccc(C(=O)C=Cc2cccs2)c(O)c1` as the compound, how does the Potency read?
**A.** inconclusive: 39.8 µM [inhibitor, single point]

**Q.** With `COc1ccc(CCNc2ncnc3c2oc2ccccc23)cc1OC` as the compound, how does the max response, negative = inhibition read?
**A.** inactive: 0.41%

**Q.** Which Potency does the source give for `CCc1c(C)sc(NC(=O)c2cc(-c3ccc(O)cc3)on2)c1C#N` here?
**A.** inconclusive: 89.1 µM [inhibitor, single point]

**Q.** With `CSc1nnc(C(C)(C)C)c(=O)n1/N=C/c1ccccc1O` as the compound, how does the Potency read?
**A.** inconclusive: 39.8 µM [inhibitor, partial curve, poor fit]

**Q.** How did the Potency turn out when `CC(=O)C1=C(O)C(=O)N(c2cc(C(C)(C)C)on2)C1c1ccc(Br)cc1` (stereo unspecified) was run?
**A.** inconclusive: 79.4 µM [inhibitor, partial curve]

**Q.** Which Potency does the source give for `Cc1cccc(NC(=O)c2c(N)sc3c2CCC(C)C3)c1` (stereo unspecified) here?
**A.** inconclusive: 79.4 µM [inhibitor, partial curve, poor fit]

**Q.** Which Potency does the source give for `C=CC(C1=CC(=O)C=CC1=O)c1ccccc1` (stereo unspecified) here?
**A.** active: 35.5 µM

**Q.** Which Potency does the source give for `O=C1C(Cl)=C(N2CCCC2)C(=O)N1c1ccccc1F` here?
**A.** inconclusive: 50.1 µM [inhibitor, partial curve]

**Q.** For `C/C(=N\NC(=O)C1(C)CC1(Br)Br)c1ccc(NC(=O)c2ccc(C)o2)cc1` (stereo unspecified), which Potency is on record?
**A.** inconclusive: 89.1 µM [inhibitor, single point]

**Q.** With `Cc1cc[n+]2c3c(cccc13)CCC2` as the compound, how does the Potency read?
**A.** active: 50.1 µM

**Q.** `CC(C)(C)NC(=O)NC(=O)C[n+]1ccc(Cc2ccc([N+](=O)[O-])cc2)cc1` was tested. Which Potency did it give?
**A.** inconclusive: 89.1 µM [inhibitor, single point]

**Q.** Which Potency does the source give for `COc1cc(Cl)ccc1NC(=S)N(CCCN1CCOCC1)Cc1cn(C)c2ccccc12` here?
**A.** inconclusive: 79.4 µM [inhibitor, single point]

**Q.** `CCOc1ccc(NC(=O)c2c(NC(=O)c3ccccc3Br)sc3c2CCC(C)C3)cc1` (stereo unspecified) was tested. Which Potency did it give?
**A.** active: 39.8 µM

**Q.** Which Potency does the source give for `O=C(O)c1ccc(S(=O)(=O)c2ccc([N+](=O)[O-])cc2[N+](=O)[O-])cc1` here?
**A.** active: 22.4 µM

**Q.** Which max response, negative = inhibition does the source give for `Cc1cc(C2(c3ccc(O)c(C)c3)OC(=O)c3ccccc32)ccc1O` here?
**A.** inactive: -7.57%

**Q.** For `Cc1sc2nc(-c3ccccn3)[nH]c(=O)c2c1-c1ccccc1`, which Potency is on record?
**A.** inconclusive: 89.1 µM [inhibitor, single point]

**Q.** With `O=C(Cc1ccccc1)NC(NNc1ccccc1)(C(F)(F)F)C(F)(F)F` as the compound, how does the Potency read?
**A.** inconclusive: 63.1 µM [inhibitor, partial curve, poor fit]

**Q.** For `O=c1c2cc(NC(=S)NC3CCCCC3)ccc2nc2n1CCCCC2`, which max response, negative = inhibition is on record?
**A.** inactive: 10%

**Q.** For `CC1C/C(=C\c2cccnc2)C(=O)/C(=C/c2cccnc2)C1` (stereo unspecified), which Potency is on record?
**A.** active: 35.5 µM

**Q.** `O=C(Cc1cccc2ccccc12)NC(NC(=S)Nc1ccccc1Cl)C(Cl)(Cl)Cl` (stereo unspecified) was tested. Which Potency did it give?
**A.** inconclusive: 89.1 µM [inhibitor, single point]

**Q.** `O=C(/C=C/c1cccnc1)c1cccc(O)c1` was tested. Which Potency did it give?
**A.** inconclusive: 50.1 µM [inhibitor, partial curve, poor fit]

**Q.** With `Cc1[nH]n(-c2ccccc2)c(=O)c1C(c1ccc(O)c([N+](=O)[O-])c1)c1c(C)[nH]n(-c2ccccc2)c1=O` as the compound, how does the Potency read?
**A.** inconclusive: 39.8 µM [inhibitor, partial curve]

**Q.** How did the Potency turn out when `Cc1ccc2nc(-c3ccc(C)o3)c(Nc3ccccc3)n2c1` was run?
**A.** inconclusive: 79.4 µM [inhibitor, partial curve, poor fit]

**Q.** With `Cc1ccc(C(=O)N2CCC(C(=O)c3ccc(Cl)cc3)CC2)cc1` as the compound, how does the Potency read?
**A.** inconclusive: 63.1 µM [inhibitor, partial curve, poor fit]

**Q.** `CCOc1cccc(C(=O)NC(=S)Nc2ccc3c(c2)OCCO3)c1` was tested. Which Potency did it give?
**A.** inconclusive: 79.4 µM [inhibitor, single point]

**Q.** With `CN(C)C(=O)c1ccc(-c2nc(-n3ccnc3)c3ccccc3n2)cc1` as the compound, how does the max response, negative = inhibition read?
**A.** inactive: -19.2%

**Q.** `N#C/C(=C\c1ccc(-c2ccc([N+](=O)[O-])cc2Br)o1)C(=O)N1CCN(c2ccccc2)CC1` was tested. Which max response, negative = inhibition did it give?
**A.** inactive: 13.1%

**Q.** For `c1cncc(CNc2nc(-c3ccoc3)nc3ccccc23)c1`, which Potency is on record?
**A.** inconclusive: 56.2 µM [inhibitor, single point]

**Q.** Which max response, negative = inhibition does the source give for `Cc1cccc(C(=O)Nc2ccccc2C(=O)OCc2cc(=O)n3nc(C4CC4)sc3n2)c1` here?
**A.** inactive: 4.93%

**Q.** `CN(C)CCCN1c2ccc([N+](=O)[O-])cc2CCc2cc([N+](=O)[O-])ccc21` was tested. Which Potency did it give?
**A.** inconclusive: 28.2 µM [inhibitor, full curve, poor fit]
